Measured values reported in PubChem BioAssay AID1347072 (National Center for Advancing Translational Sciences (NCATS), 2019).
The whole screen tested about 44,000 compounds, of which fewer than 10 were called active. The shares of active, inactive and inconclusive entries below differ from those in the screen. Calls come from the whole dose curve; as a rule, active = well fitted curve in the direction sought with a large enough effect; inconclusive = small, poorly fitted or top-dose-only effect, or another doubt; inactive = no such curve, though single readings can be large or run the other way. Potencies beside an inconclusive call are fits to weak or partial responses and may not hold up.

Sequences of proteins named here, by UniProt entry; tags and fusion partners are left off. A change or cut given only in a name is not applied to a line headed by its entry.
UniProt P51570: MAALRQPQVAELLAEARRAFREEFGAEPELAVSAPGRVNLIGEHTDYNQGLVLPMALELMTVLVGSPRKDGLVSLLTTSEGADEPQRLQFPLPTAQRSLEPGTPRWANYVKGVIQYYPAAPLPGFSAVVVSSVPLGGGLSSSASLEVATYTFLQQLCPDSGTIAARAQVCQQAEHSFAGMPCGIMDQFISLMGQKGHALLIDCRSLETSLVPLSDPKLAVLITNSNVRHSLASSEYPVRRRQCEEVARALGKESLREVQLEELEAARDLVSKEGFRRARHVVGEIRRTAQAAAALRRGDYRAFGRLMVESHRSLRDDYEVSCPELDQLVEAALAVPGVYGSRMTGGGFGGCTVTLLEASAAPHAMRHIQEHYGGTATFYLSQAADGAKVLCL

What follows are compounds tested against Galactokinase (Homo sapiens) (UniProt P51570) (assay: qHTS Assay for Inhibitors of Human Galactokinase (GALK): NCGC Sytravon Library Screen). Details: recombinant GALK, Kinase-Glo ATP luminescence, 1 h; series mostly up to 57.5 µM; activity, negative = inhibition: at the top concentration.
Method in brief: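 5 nM GALK with 35 µM ATP and 100 µM galactose in HEPES pH 8.0, MgCl2, NaCl, DTT, BSA; 1 h RT reaction, remaining ATP detected by Kinase-Glo Plus luminescence after 10 min; qHTS concentration series.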
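Throughout, for activity, negative = inhibition: plate controls were full GALK reaction for no effect and reaction lacking GALK for full effect.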

activity, negative = inhibition, inactive:
O=C1c2[nH]nc(-c3ccc(F)cc3)c2C(c2ccccc2F)N1c1ccccc1 (configuration not stated) -15.6%
COc1ccc(CCNc2ncnc3c2cnn3-c2ccc(C)c(Cl)c2)cc1 3.49%
COc1ccc(-c2cc3ccc(O)c(CN4CCCC(C)C4)c3oc2=O)cc1 (configuration not stated) -3.04%
Cc1cccc(N(CC(=O)NCCSCc2ccc(Cl)cc2)S(C)(=O)=O)c1C 3.47%
COc1ccc(-c2cc(C(=O)Nc3ccn(Cc4ccc(C)cc4)n3)no2)cc1OC 2.7%
Cc1cccc(OCC(=O)Nc2ccc(-c3nc4cc(C)ccc4o3)c(O)c2)c1 0.916%
CCOc1ccc(N(C)S(=O)(=O)c2ccc3[nH]cc(C(=O)NCc4ccccc4)c(=O)c3c2)cc1 -0.619%
COc1cccc(CNC(=O)Cn2nc(-c3ccc(Cl)cc3)ccc2=O)c1 -0.904%
CCOC(=O)c1ccc(NC(=O)CSc2nc3cc4ccccc4cc3[nH]2)cc1 5.24%
CCOC(=O)c1ccc(N2C(=O)c3n[nH]c(-c4ccco4)c3C2c2ccc(O)cc2)cc1 (configuration not stated) 0.26%
Cc1nnc2c(N3CCN(c4ccc(F)cc4)CC3)nc3ccc(C(=O)c4ccccc4)cc3n12 -0.0235%
Cc1cc2n(n1)CCCN2C(=O)Nc1ccc(Cl)cc1 0.597%
CCc1ccc(-n2c(SCC(=O)NC(C)CC)nc3n[nH]c(C)c3c2=N)cc1 (configuration not stated) -0.364%
COc1ccc(-c2c3c(=O)n(C)c(=O)n(C)c3cn2-c2cccc(N)c2)cc1 -9.78%
COC(=O)C(C)NC(=O)N1CCN(c2nnc(C)c3c(C)n(-c4ccc(Cl)cc4)nc23)CC1 (configuration not stated) 2.2%
Cc1ccc(-n2nc(C)c(C(=O)NCCCN3CCN(c4cccc(Cl)c4)CC3)c2-n2cccc2)cc1 -5.26%
COc1ccc(NC(=O)CN2C(=O)C(c3ccc(C)cc3)=NC23CCCCCC3)cc1Cl -0.398%
Cc1cc(C)cc(NC(=O)c2cc(S(=O)(=O)N3CCC(C)CC3)cn2C)c1 -0.772%
Cc1cc(S(=O)(=O)NCC(c2ccco2)S(=O)(=O)c2cccs2)ccc1F (configuration not stated) -0.58%
CC(=O)c1ccc(NS(=O)(=O)c2ccc3[nH]c4c(c3c2)CCCC4)cc1 -5.08%
O=C(C1CC1)N1CCc2cc(Br)cc(S(=O)(=O)Nc3ccc(C(F)(F)F)cc3)c21 6.35%
COc1cccc(NC(=O)CSc2nnc(-c3cccs3)o2)c1 0.358%

Potency, inconclusive:
Cc1ccc2[nH]c3c(=O)n(CC(=O)Nc4ccc(Br)cc4C)ncc3c2c1 447 nM [inhibitor, full curve, poor fit]
COc1ccc(CCNS(=O)(=O)c2c(C)nc3sccn3c2=O)cc1OC 1780 nM [inhibitor, full curve, poor fit]
COc1ccc(OCC(O)Cn2c(=N)n(CCN3CCCCC3)c3ccccc32)cc1 (configuration not stated) 15800 nM [inhibitor, partial curve, poor fit]
O=C(O)c1c(-c2ccccc2)oc2ccc(OCc3ccc(Cl)c(Cl)c3)cc12 35500 nM [inhibitor, partial curve, poor fit]
CC1=C(c2ccc(C(C)C)cc2)S(=O)(=O)NC1=NCCCN1CCN(c2ccccc2F)CC1 1120 nM [inhibitor, full curve, poor fit]
Cc1oc(-c2ccc(Cl)cc2)nc1Cn1c(=O)cc(C)c2c(C)nn(-c3cccc(F)c3)c21 708 nM [inhibitor, partial curve, poor fit]
Cc1ccc(-c2cc(C(=O)NCc3cnn(C)c3)c3cc(Br)ccc3n2)cc1 39800 nM [inhibitor, single point]
CCOC(=O)C1(C)C=C(Nc2ccc(C)cc2)C(=O)N1c1ccccc1 (configuration not stated) 1580 nM [inhibitor, full curve, poor fit]
CC(C)Oc1ccc(CNC(=O)CCn2c(=O)c3cccn3c3ccc(F)cc32)cc1 794 nM [inhibitor, full curve, poor fit]
Cc1nn(C)cc1CN(C)C(=O)c1cc(-c2ccccc2)nc2ccc(Br)cc12 39800 nM [inhibitor, single point]
CN(C)CCNc1oc(-c2ccc(COc3ccc(Cl)cc3)o2)nc1C#N 199 nM [inhibitor, full curve, poor fit]
CC(=O)N1CCc2cc(S(=O)(=O)C(C)CC(=O)Nc3ccc(Br)c(C)c3)ccc21 (configuration not stated) 25100 nM [inhibitor, partial curve, poor fit]
Cc1nc2nc(NC(=O)c3ccc(C(C)(C)C)cc3)[nH]n2c(=O)c1Cc1ccccc1 39800 nM [inhibitor, partial curve, poor fit]
COc1ccc(OC)c(NC(=O)CN2C(=O)CC(C)Sc3ccccc32)c1 (configuration not stated) 17800 nM [inhibitor, partial curve, poor fit]
Cc1cccc(-c2noc(-c3cccnc3NCc3ccc(Cl)cc3)n2)c1 141 nM [inhibitor, full curve, poor fit]
COc1ccc(S(=O)(=O)Nc2ccc3oc4c(c3c2)CCCC4)cc1 39800 nM [inhibitor, single point]
CCc1ccc(S(=O)(=O)Nc2cc3c(C(=O)OCc4ccccc4)c(C)oc3c3ccccc23)cc1 1260 nM [inhibitor, full curve, poor fit]
CCOc1ccc(C(=O)NCC(c2ccc(Cl)cc2)N2CCCCC2)cc1 (configuration not stated) 126 nM [inhibitor, full curve, poor fit]
CCOc1ccc(-c2nnc(SCC(=O)Nc3cc(F)ccc3F)o2)cc1 141 nM [inhibitor, full curve, poor fit]
Cc1ccc(CCNC(=O)c2ccc(CS(=O)(=O)c3ccc(Cl)cc3)o2)cc1 39800 nM [inhibitor, partial curve, poor fit]
Cc1ccc(CN2CCCn3nc(C(=O)NCc4ccccc4Cl)cc3C2=O)cc1 224 nM [inhibitor, full curve, poor fit]
Cc1ccc(C2=Nc3ccccc3N(CC(=O)Nc3ccccc3C)C(=O)C2)cc1C 178 nM [inhibitor, full curve, poor fit]
CCOc1ccc(NC(=O)Cn2cc(C(=O)c3ccc(F)cc3)c(=O)c3cc4c(cc32)OCO4)cc1 28200 nM [inhibitor, partial curve, poor fit]
CCOc1ccc(/C=C/c2nc(C#N)c(NC3CCCCC3)o2)cc1 39800 nM [inhibitor, partial curve, poor fit]
Cc1ccc(NC(=O)CN2C(=O)CSc3ccc(S(=O)(=O)N4CCCC4)cc32)c(C)c1 1580 nM [inhibitor, full curve, poor fit]
CCOc1ccc(CNC(=O)c2ccc(NC(=O)N3CCSc4ncccc43)cc2)cc1 1410 nM [inhibitor, full curve, poor fit]
CCCN1CCN(CCCNC(=O)c2cc3c(s2)-c2ccccc2OC3)CC1 1000 nM [inhibitor, partial curve, poor fit]
Cn1c(SCc2ccccc2Cl)nc(=O)c2c1NC(=O)CC2c1cc(F)ccc1F (configuration not stated) 126 nM [inhibitor, full curve, poor fit]
Cn1cc(S(=O)(=O)N2CCCCC2)cc1C(=O)Nc1ccc(OC(F)(F)F)cc1 35500 nM [inhibitor, partial curve, poor fit]
CCOc1ccc(NC(=O)c2nnn(-c3ccc(F)c(Cl)c3)c2C)cc1 1410 nM [inhibitor, full curve, poor fit]
CCc1c(C)nc(SCc2nc(-c3ccccc3)no2)[nH]c1=O 14100 nM [inhibitor, partial curve, poor fit]
O=C(CCn1c(=O)c2cccn2c2cccnc21)N1CCN(c2ccccc2F)CC1 1260 nM [inhibitor, partial curve, poor fit]
Cc1cc(C)cc(NC(=O)C2CCCN2S(=O)(=O)c2ccc3c(c2)C(C)(C)C(=O)N3C)c1 (configuration not stated) 1580 nM [inhibitor, full curve, poor fit]
O=C(CSc1nc2ccccc2nc1Cc1ccc(F)cc1)Nc1ccc2c(c1)OCO2 794 nM [inhibitor, full curve, poor fit]
O=C(Nc1nnc(S(=O)(=O)N2CCCCCC2)s1)c1ccc(Br)cc1 126 nM [inhibitor, partial curve, poor fit]
CC(=O)c1ccc(NC2=NS(=O)(=O)c3ccccc32)cc1 31600 nM [inhibitor, partial curve, poor fit]
COCCNC(=O)c1ccc(NC(=O)N2CCCCc3ccccc32)cc1 199 nM [inhibitor, full curve, poor fit]
COc1ccc(NC(=O)c2ccc(-c3nc(CSc4ccccc4)c(C)o3)cc2)c(OC)c1 1000 nM [inhibitor, full curve, poor fit]
CCc1ccc(S(=O)(=O)Nc2ccc3oc(C)c(C(=O)OCCOC)c3c2)cc1 282 nM [inhibitor, partial curve, poor fit]
CCc1ccccc1NC(=O)CSc1ncc(S(=O)(=O)c2ccccc2)c(=O)[nH]1 28200 nM [inhibitor, partial curve, poor fit]

Already shown: an excerpt of the list.
Potency, inconclusive:
CCc1c(C)nc(SCc2nc(-c3ccccc3)no2)[nH]c1=O 14100 nM [inhibitor, partial curve, poor fit]
O=C(CCn1c(=O)c2cccn2c2cccnc21)N1CCN(c2ccccc2F)CC1 1260 nM [inhibitor, partial curve, poor fit]
Cc1cc(C)cc(NC(=O)C2CCCN2S(=O)(=O)c2ccc3c(c2)C(C)(C)C(=O)N3C)c1 (configuration not stated) 1580 nM [inhibitor, full curve, poor fit]
